{
  "sequences": {"note": "The chains behind the UniProt entries cited, without tags or fusion partners.", "UniProt O60260": "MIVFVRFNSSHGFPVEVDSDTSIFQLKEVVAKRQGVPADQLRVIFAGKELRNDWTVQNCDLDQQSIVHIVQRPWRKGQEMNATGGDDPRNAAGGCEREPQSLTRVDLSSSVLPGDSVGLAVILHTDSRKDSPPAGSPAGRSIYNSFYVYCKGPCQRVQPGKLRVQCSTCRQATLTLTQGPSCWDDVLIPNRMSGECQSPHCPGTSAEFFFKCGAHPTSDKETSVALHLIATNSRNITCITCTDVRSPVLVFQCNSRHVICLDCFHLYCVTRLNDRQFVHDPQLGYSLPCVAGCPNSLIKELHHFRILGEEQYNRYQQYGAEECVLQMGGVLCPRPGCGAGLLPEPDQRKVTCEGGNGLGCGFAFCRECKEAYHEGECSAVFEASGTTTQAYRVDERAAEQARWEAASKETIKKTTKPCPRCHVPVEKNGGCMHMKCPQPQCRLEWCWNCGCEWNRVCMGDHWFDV"},
  "source": "paper PMC7801470",
  "target": "PARK2 (UniProt O60260)",
  "assay": "co-IP; co-immunoprecipitation from cells; cell line, precipitating antibody and buffer not told",
  "note": "Results are given in words; binding and its absence hold for the method and conditions named. In cells and extracts the contact can be indirect. Some binding calls cover weakened binding; strength is not graded here.",
  "data": [
    {"substance": "BCL-XL (from UniProt Q07817-1 1-233)", "values": [
      {"measurement": "binding", "result": "binds"}
    ]}
  ]
}
